Reference: PubChem BioAssay
The list shows a part of the results. The main result of the screen is listed elsewhere. These columns were measured beside it and carry no call. For some assays here: Most of these compounds were active or inconclusive in the main read-out, so they are no random draw.

Amino acid sequences for entries named in this document (tags omitted).
UniProt P42858, whole entry, looked up: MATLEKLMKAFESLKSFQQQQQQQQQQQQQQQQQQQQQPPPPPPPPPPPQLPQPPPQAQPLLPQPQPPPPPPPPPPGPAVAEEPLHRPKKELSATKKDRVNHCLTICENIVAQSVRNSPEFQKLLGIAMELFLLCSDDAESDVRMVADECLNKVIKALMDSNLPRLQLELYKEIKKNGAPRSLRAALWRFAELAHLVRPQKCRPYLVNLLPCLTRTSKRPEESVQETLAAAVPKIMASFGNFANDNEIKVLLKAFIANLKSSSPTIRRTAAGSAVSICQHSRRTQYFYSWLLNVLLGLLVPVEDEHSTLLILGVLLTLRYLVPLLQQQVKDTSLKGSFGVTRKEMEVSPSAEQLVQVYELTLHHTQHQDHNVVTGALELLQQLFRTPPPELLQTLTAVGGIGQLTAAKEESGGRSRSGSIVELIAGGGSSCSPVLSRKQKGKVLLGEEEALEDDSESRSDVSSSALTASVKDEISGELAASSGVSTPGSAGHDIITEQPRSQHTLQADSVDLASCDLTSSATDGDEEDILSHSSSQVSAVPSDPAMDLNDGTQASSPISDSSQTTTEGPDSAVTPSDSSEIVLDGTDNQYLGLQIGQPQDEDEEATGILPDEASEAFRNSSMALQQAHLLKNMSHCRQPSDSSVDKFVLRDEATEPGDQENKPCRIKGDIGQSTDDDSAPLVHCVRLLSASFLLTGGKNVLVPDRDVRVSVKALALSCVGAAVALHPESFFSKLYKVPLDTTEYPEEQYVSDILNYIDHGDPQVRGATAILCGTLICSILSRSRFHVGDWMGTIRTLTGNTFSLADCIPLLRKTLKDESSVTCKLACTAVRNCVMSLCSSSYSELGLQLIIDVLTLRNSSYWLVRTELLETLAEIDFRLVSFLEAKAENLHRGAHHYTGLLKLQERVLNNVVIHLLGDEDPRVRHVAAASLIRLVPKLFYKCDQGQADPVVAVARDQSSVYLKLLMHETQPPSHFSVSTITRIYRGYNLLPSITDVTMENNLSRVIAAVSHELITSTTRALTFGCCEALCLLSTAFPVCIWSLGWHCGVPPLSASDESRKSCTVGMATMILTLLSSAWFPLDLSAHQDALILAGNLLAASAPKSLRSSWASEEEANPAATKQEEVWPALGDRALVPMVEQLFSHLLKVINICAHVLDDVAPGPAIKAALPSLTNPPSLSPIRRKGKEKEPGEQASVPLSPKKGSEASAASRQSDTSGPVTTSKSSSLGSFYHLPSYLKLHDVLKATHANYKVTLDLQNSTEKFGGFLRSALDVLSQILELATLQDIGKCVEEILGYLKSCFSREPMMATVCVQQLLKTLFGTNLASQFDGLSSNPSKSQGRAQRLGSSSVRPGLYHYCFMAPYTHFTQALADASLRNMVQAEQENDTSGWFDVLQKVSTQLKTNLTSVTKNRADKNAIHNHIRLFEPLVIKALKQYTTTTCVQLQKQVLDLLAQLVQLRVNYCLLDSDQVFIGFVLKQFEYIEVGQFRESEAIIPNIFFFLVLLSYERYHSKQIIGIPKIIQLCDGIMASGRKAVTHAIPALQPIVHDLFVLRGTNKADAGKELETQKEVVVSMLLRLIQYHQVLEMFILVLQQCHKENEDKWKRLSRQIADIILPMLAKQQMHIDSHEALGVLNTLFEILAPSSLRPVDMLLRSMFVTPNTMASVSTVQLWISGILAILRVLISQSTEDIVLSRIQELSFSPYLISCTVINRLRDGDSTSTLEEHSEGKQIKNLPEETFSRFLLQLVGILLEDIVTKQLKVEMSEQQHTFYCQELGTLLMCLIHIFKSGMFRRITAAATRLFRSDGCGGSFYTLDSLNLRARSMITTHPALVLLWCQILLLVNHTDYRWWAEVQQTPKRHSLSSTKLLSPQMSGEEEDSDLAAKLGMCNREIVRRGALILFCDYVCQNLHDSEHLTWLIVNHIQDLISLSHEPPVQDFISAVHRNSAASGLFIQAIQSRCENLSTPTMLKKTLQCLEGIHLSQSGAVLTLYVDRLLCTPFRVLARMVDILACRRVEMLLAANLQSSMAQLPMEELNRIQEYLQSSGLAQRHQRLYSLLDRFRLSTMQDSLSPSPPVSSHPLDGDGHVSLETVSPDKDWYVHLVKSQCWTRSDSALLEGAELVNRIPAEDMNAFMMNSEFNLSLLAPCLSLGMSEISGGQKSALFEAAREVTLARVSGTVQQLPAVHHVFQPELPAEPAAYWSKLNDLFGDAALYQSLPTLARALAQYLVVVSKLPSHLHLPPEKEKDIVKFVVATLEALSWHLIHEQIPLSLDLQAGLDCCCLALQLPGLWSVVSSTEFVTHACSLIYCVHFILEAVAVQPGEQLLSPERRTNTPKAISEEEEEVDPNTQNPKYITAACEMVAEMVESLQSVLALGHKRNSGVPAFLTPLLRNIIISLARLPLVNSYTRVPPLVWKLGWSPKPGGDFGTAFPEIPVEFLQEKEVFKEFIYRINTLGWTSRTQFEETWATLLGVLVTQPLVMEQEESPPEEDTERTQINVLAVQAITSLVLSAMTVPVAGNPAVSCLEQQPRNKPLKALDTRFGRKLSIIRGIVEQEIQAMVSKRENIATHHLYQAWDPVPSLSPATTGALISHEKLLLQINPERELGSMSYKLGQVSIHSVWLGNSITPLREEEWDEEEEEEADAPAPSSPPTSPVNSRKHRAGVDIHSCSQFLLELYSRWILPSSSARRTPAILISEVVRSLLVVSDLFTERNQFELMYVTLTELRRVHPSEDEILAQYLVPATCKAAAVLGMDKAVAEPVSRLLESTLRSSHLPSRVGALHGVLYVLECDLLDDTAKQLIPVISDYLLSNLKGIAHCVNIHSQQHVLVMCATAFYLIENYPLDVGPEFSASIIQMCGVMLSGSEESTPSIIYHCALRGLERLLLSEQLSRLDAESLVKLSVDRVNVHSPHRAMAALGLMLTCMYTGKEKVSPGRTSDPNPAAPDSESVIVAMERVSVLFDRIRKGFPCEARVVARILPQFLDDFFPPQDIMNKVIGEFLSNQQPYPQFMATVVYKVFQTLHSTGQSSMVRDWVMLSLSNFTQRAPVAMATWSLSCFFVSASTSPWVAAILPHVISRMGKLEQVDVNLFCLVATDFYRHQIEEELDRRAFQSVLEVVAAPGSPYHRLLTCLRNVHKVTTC

Columns and labels:
[1] = target: Huntingtin (Homo sapiens) (UniProt P42858); assay: inhibitors of mutant Htt aggregation in vitro, dose response, QA1 (AID 1584); settings: in vitro mutant huntingtin aggregation assay; confirmation test; at 10 µM; stronger effect = lower value
[2] = PubChem AID 1586; settings: yeast two-hybrid polyglutamine protein interaction, reporter readout; measured here: averaged growth delta OD
[3] = enhancers of SMN2 over SMN1 splicing, cell-based, SMN2/SMN1 luciferase reporters (AID 1598); settings: SMN2 vs SMN1 luciferase splicing reporter cells, at 10 µM; SMN1 luciferase ratio: measured here: SMN1 luciferase reporter average; SMN2 luciferase ratio: measured here: SMN2 luciferase reporter average, stronger effect = higher value
[4] = protection against mutant huntingtin cytotoxicity, PC12 cells, LDH release (AID 1610); settings: PC12 mutant huntingtin toxicity, final LDH at 4 uM, stronger effect = lower value

| Compound | aggregation ratio [1] | signal change (36 h minus 0 h) [2] | SMN1 luciferase ratio [3] | SMN2 luciferase ratio [3] | normalised LDH release [4] |
| --- | --- | --- | --- | --- | --- |
| CN1CCN2c3ccccc3Cc3ccccc3C2C1 (stereo not drawn) | 1.03 | 0.408 | 0.86 | 0.78 | 0.921 |
| Oc1c(I)cc(I)c2cccnc12 | 1.03 | -0.0164 | 0.88 | 0.75 | 1.17 |
| OCCS | 1.01 | 0.222 | 0.91 | 0.94 | 1.02 |
| CN(C)[C@@H]1C(=O)C(C(N)=O)=C(O)[C@@]2(O)C(=O)C3=C(O)c4c(O)ccc(Cl)c4[C@@H](O)[C@H]3C[C@@H]12 | 0.979 | 0.417 | 0.9 | 0.93 | 0.72 |
| CC(=O)OC/C=C(C)/C=C/C=C(C)/C=C/C1=C(C)CCCC1(C)C | 0.985 | 0.0583 | 0.93 | 0.81 | 0.283 |
| CCCCN(CCCC)CCCOC(=O)c1ccc(N)cc1 | 1.05 | 0.172 | 0.83 | 0.86 | 0.749 |
| OCc1ccccc1O[C@@H]1O[C@H](CO)[C@@H](O)[C@H](O)[C@H]1O | 1.01 | 0.0502 | 0.9 | 0.87 | 1.08 |
| C[C@H](CS)C(=O)N1CCC[C@H]1C(=O)O | 1.07 | 0.168 | 0.87 | 0.93 | 0.889 |
| Cc1cc2cc3c(C)cc(=O)oc3c(C)c2o1 | 1.04 | 0.208 | 0.93 | 1.07 | 0.458 |
| CC(C)(C)CC(C)(C)c1ccc(O)c(Cc2ccc(Cl)cc2Cl)c1 | 0.984 | 0.239 | 0.9 | 0.87 | 1.07 |
| C[C@](N)(Cc1ccc(O)c(O)c1)C(=O)O | 1.07 | 0.0599 | 0.87 | 0.96 | 0.878 |
| CC(=O)N[C@@H](CS)C(=O)O | 1.02 | 0.193 | 0.84 | 0.88 | 0.875 |
| Oc1c(Cl)cc(Cl)c(Cl)c1Cc1c(O)c(Cl)cc(Cl)c1Cl | 0.98 | 0.00345 | 0.46 | 0.44 | – |
| NC(=O)c1cc[n+](CC2=C(C(=O)O)N3C(=O)C(NC(=O)C(c4ccccc4)S(=O)(=O)[O-])C3SC2)cc1 (stereo not drawn) | 1.01 | 0.2 | 0.96 | 0.85 | 1.1 |
| CC1OC1P(=O)(O)O (stereo not drawn) | 1.06 | 0.0864 | 1.01 | 0.95 | 1.03 |
| CC[C@@H](C(=O)C(C)[C@@H](O)[C@H](C)CCc1ccc(C)c(O)c1C(=O)O)C1OC(CC)(C2CC[C@](O)(CC)[C@H](C)O2)C[C@@H]1C (stereo partly drawn) | 0.969 | 0.162 | 0.51 | 0.53 | 1.53 |
| O=C1C=CC(=C(c2ccc(O)cc2)c2ccc(O)cc2)C=C1 | 1.06 | 0.0929 | 0.94 | 0.99 | – |
| C=C1c2cccc(O)c2C(O)=C2C(=O)[C@]3(O)C(O)=C(C(N)=O)C(=O)[C@@H](N(C)C)[C@@H]3[C@@H](O)[C@H]12 | 0.988 | 0.159 | 0.84 | 0.93 | 0.964 |
| Oc1ccc(Cl)cc1Cc1cc(Cl)ccc1O | 0.892 | 0.164 | 0.92 | 0.89 | 0.891 |
| CC1=C(/C=C/C(C)=C/C=C/C(C)=C/C(=O)O)C(C)(C)CCC1 | 0.972 | 0.158 | 0.8 | 0.87 | 0.658 |
| Cc1cc(N)c2ccccc2[n+]1CCCCCCCCCC[n+]1c(C)cc(N)c2ccccc21 | 1.03 | 0.0966 | 0.35 | 0.57 | 0.996 |
| CCC(c1ccc(O)cc1)C(CC)c1ccc(O)cc1 (stereo not drawn) | 0.998 | 0.155 | 0.98 | 0.79 | 0.439 |
| O=C1c2ccc(O)c(O)c2C(=O)c2c(O)ccc(O)c21 | 0.693 | 0.0257 | 0.57 | 0.9 | 0.765 |
| CCCN1C[C@H](CSC)C[C@@H]2c3cccc4[nH]cc(c34)C[C@H]21 | 0.97 | 0.188 | 0.93 | 0.97 | 0.543 |
| CCC1(c2ccccc2)NC(=O)N(C)C1=O (stereo not drawn) | 1.07 | 0.105 | 0.94 | 0.96 | 0.971 |
| NCC1CCC(C(=O)O)CC1 (stereo not drawn) | 0.984 | 0.0291 | 0.89 | 0.84 | 1.06 |
| CC1=C(/C=C/C(C)=C/C=C/C(C)=C/C=C/C=C(C)/C=C/C=C(C)/C=C/C2=C(C)CCCC2(C)C)C(C)(C)CCC1 | 0.737 | 0.0486 | 0.89 | 0.88 | 0.826 |
| N[C@@H](Cc1ccc(O)c(O)c1)C(=O)O | 0.999 | 0.207 | 0.8 | 0.86 | 0.648 |
| CC(=O)O[C@@H]1CC2C(C)(C)C(=O)C=C[C@]2(C)C2CC[C@@]3(C)[C@H](c4ccoc4)OC(=O)[C@H]4O[C@]43[C@@]21C (stereo partly drawn) | 0.994 | 0.342 | 1.06 | 1.04 | 0.856 |

2 compounds drawn at random from those above, as already listed:

| Compound | aggregation ratio [1] | signal change (36 h minus 0 h) [2] | SMN1 luciferase ratio [3] | SMN2 luciferase ratio [3] | normalised LDH release [4] |
| --- | --- | --- | --- | --- | --- |
| CC(=O)N[C@@H](CS)C(=O)O | 1.02 | 0.193 | 0.84 | 0.88 | 0.875 |
| OCc1ccccc1O[C@@H]1O[C@H](CO)[C@@H](O)[C@H](O)[C@H]1O | 1.01 | 0.0502 | 0.9 | 0.87 | 1.08 |
